Numbering of substitutions follows the chain as printed. Results are given in words; binding and its absence hold for the method and conditions named. In cells and extracts the contact can be indirect. Some binding calls cover weakened binding; strength is not graded here.
Legend:
[1] = biological target: T1, Translationally controlled tumor protein (neonatal rat ventricular myocytes) (rat (endogenous in NRVMs)) (UniProt P63029); experiment: proximity ligation; Duolink PLA in fixed NRVMs, endogenous proteins; signal when less than 40 nm apart; cells transfected with control siRNA or TCTP siRNA
T1 sequence: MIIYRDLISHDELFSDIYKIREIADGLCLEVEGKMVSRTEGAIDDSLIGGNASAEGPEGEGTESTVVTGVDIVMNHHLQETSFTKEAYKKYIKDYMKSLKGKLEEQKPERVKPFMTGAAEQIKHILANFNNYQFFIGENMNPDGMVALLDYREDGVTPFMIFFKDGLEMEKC

The chains behind the UniProt entries cited, without tags or fusion partners.
UniProt P13693: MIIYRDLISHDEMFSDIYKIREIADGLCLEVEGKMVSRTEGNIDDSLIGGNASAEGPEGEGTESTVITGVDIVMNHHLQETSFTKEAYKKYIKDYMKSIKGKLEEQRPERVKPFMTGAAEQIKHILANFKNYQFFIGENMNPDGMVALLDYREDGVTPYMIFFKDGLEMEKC
UniProt P08050: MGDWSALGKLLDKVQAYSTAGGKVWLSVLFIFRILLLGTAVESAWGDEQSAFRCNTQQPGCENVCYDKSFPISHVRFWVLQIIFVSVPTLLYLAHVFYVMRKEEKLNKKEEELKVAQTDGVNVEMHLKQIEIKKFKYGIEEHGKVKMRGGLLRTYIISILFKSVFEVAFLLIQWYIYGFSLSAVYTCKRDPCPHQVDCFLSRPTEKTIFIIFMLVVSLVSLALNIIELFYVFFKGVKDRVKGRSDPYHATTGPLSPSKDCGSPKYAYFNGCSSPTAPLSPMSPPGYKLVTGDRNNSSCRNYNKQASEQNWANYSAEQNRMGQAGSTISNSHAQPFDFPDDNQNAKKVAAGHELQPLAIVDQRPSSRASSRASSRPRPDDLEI
UniProt P17302: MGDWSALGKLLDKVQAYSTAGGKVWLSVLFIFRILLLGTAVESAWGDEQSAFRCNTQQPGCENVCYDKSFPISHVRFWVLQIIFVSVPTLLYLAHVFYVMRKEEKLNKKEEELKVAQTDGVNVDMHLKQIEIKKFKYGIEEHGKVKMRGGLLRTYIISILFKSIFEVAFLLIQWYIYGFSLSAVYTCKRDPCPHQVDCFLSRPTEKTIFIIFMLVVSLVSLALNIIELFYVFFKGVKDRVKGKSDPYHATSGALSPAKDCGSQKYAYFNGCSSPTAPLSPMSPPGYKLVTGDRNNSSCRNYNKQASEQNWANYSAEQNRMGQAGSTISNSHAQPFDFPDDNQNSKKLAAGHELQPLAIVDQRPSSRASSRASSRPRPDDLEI
UniProt P23242: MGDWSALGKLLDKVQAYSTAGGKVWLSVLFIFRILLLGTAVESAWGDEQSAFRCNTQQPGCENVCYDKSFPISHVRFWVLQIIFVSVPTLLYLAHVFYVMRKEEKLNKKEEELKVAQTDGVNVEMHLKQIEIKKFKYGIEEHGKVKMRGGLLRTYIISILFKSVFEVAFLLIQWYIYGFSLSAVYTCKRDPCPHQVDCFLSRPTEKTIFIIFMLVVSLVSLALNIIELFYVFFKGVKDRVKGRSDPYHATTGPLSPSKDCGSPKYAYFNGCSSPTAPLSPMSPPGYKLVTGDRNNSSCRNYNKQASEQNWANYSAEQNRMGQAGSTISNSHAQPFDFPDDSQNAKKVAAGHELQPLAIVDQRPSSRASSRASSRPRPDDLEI

[2] = biological target: T2, Translationally controlled tumor protein (human iPSC-derived cardiomyocytes) (human (endogenous in iPSC-CMs)) (UniProt P13693); experiment: proximity ligation; PLA in human iPSC-CMs, endogenous proteins; signal when less than 40 nm apart; negative control lacks the anti-Cx43 antibody
T2 sequence: T1 sequence with L13M, A42N, V67I, L99I, K107R, N130K, F159Y

[3] = biological target: T3, Translationally controlled tumor protein (mouse heart) (mouse (endogenous in mouse heart left ventricle)) (UniProt P63028); experiment: co-IP; mouse left ventricle lysate in IP Lysis Buffer (50 mM Tris-HCl pH 7.5, 150 mM NaCl, 5 mM EDTA, 1% NP-40); anti-TCTP antibody (PM107) overnight at 4°C, Dynabeads Protein G 1 h at 4°C; western blot with anti-Cx43 antibody
T3 sequence: T1 sequence

Q: How did the binding [1] turn out when “Connexin 43 (neonatal rat ventricular myocytes) (from UniProt P08050 1-382)” was run?
A: binds

Q: Which binding [2] does the source give for “Connexin 43 (human iPSC-derived cardiomyocytes) (from UniProt P17302 1-382)” here?
A: binds

Q: For “Connexin 43 (mouse heart) (from UniProt P23242 1-382)”, which binding [3] is on record?
A: binds
